Experiment [1] addresses T1, ICE1-Myc (35S:ICE1-Myc stable transgenic Arabidopsis) (Arabidopsis) (UniProt Q9LSE2).
T1 sequence: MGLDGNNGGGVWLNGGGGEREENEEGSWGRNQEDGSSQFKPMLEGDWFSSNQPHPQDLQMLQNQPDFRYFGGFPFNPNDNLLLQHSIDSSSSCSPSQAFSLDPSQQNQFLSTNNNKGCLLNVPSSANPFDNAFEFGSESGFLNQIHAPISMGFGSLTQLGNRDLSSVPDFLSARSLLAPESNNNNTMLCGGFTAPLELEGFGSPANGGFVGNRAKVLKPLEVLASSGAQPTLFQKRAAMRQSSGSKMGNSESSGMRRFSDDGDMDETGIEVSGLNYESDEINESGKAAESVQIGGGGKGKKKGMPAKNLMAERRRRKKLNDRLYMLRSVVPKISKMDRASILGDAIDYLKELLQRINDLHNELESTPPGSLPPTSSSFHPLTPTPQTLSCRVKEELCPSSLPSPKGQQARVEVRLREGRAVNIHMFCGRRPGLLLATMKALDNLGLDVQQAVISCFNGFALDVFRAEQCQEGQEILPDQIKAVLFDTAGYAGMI
Nature of the experiment: co-IP.

By UniProt entry, the sequences of proteins in these tests, tags left out. Where a name states a change or a piece, a line headed by the entry shows the natural chain unless it says otherwise. Residues count along the entry.
UniProt P93002: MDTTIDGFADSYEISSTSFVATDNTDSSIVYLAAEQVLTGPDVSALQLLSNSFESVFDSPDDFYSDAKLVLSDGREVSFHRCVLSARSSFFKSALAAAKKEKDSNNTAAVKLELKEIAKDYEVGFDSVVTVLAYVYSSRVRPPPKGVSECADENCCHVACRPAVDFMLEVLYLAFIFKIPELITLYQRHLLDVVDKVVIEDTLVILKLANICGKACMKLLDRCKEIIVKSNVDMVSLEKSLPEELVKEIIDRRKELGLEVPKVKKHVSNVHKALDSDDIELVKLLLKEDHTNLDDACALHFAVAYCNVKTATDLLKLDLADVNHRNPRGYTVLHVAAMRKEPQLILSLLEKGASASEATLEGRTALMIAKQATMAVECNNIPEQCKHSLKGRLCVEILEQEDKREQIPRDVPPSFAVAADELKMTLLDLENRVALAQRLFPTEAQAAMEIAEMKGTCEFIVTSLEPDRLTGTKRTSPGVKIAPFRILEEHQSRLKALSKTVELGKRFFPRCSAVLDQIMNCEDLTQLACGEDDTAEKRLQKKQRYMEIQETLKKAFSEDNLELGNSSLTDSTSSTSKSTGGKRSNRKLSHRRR
NPR1^1-194-cYFP: residues 1-194 of P93002

Experiment [2] addresses T2, BD-TGA3 (full length, in pGBKT7) (Arabidopsis) (UniProt Q39234).
T2 sequence: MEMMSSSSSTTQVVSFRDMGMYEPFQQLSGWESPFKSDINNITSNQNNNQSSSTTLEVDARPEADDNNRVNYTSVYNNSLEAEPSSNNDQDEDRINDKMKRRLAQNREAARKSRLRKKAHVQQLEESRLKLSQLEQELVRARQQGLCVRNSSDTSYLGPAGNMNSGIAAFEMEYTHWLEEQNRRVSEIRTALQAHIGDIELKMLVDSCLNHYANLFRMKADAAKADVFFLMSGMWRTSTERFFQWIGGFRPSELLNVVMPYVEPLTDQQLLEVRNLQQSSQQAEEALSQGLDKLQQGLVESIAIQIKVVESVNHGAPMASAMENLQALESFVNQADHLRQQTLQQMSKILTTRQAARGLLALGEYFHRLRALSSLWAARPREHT
Description: two-hybrid.

For experiment [3], the target named is BD-NPR1 (Non-expresser of PR genes 1, full length, in pGBKT7) (Arabidopsis) (UniProt P93002). Nature of the experiment: two-hybrid.
The target of experiment [4] is NPR1-cYFP (Arabidopsis) (UniProt P93002). Description: split reporter.
In experiment [5] the target is T3, TGA3-YFP (35S::TGA3-YFP, pEarleyGate101) (Arabidopsis) (UniProt Q39234).
T3 sequence: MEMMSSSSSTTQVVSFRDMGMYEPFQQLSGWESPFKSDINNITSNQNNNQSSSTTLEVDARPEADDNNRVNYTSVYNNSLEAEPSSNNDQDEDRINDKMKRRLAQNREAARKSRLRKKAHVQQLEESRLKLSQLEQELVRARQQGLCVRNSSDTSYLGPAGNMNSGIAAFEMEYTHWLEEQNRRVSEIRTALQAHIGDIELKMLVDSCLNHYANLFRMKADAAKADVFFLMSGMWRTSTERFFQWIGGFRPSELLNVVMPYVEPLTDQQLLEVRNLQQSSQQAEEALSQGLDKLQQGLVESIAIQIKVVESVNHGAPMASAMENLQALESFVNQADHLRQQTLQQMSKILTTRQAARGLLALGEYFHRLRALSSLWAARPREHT
Description: co-IP.

Experiment [6] deals with NPR1-YFP (35S::NPR1-YFP, pEarleyGate101) (Arabidopsis) (UniProt P93002). Nature of the experiment: co-IP.
Experiment [7] addresses NPR1-cLUC (Arabidopsis) (UniProt P93002). Nature of the experiment: split reporter.
Experiment [8] has the same target. Description: split reporter. The source holds these as a separate data set.
Experiment [9] has as its target T4, cLUC-TGA3 (Arabidopsis) (UniProt Q39234).
T4 sequence: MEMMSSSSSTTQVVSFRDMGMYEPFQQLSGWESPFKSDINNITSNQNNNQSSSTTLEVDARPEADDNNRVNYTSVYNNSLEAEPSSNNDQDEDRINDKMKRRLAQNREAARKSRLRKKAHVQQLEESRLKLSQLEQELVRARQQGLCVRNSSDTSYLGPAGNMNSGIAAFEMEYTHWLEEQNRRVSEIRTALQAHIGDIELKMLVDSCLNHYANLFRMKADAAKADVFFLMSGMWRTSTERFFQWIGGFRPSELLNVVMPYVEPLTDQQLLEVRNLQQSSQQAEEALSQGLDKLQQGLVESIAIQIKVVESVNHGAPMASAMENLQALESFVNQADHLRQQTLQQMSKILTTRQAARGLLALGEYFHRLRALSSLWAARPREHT
Nature of the experiment: split reporter.

The target in experiment [10] is NPR1-cYFP (Arabidopsis) (UniProt P93002). Nature of the experiment: split reporter. The source holds these as a separate data set.
In experiment [11] the target is NPR1^1-194-cYFP (Arabidopsis) (UniProt P93002). Description: split reporter.
In experiment [12] the target is T5, TGA2-cYFP (Arabidopsis) (UniProt P43273).
T5 sequence: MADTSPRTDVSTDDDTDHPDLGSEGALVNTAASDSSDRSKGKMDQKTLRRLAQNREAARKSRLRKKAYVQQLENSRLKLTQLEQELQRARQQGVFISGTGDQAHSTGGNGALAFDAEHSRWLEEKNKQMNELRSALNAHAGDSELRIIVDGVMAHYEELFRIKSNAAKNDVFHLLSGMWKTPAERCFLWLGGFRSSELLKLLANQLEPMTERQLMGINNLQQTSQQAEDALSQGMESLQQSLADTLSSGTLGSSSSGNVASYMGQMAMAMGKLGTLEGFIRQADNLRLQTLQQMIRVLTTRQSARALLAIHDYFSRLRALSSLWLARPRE
Description: split reporter.

Experiment [13] addresses T6, TGA3-cYFP (Arabidopsis) (UniProt Q39234).
T6 sequence: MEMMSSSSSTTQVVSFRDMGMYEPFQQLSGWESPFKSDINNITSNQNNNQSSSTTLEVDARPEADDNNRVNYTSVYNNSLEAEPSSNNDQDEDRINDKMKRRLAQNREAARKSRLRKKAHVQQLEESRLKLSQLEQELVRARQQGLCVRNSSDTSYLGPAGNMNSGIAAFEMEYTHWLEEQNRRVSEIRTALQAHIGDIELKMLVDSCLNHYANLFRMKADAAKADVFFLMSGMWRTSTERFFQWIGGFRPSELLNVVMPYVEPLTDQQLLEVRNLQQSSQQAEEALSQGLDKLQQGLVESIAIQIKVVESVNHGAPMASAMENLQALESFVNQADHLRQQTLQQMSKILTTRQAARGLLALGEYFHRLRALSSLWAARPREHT
Description: split reporter.

The target in experiment [14] is T7, TGA7-cYFP (Arabidopsis) (UniProt Q93ZE2).
T7 sequence: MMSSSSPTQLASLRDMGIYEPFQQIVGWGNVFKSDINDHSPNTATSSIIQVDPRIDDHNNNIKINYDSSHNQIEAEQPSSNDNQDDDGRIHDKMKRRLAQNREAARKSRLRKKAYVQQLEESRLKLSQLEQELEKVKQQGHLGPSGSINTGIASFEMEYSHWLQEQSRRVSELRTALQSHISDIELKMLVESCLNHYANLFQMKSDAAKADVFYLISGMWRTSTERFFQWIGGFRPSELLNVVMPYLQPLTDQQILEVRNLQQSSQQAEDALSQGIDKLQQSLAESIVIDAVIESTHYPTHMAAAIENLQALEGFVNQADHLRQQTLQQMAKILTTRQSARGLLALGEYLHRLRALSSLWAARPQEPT
Nature of the experiment: split reporter.

For experiment [15], the target named is T8, TGA1-cYFP (Arabidopsis) (UniProt Q39237).
T8 sequence: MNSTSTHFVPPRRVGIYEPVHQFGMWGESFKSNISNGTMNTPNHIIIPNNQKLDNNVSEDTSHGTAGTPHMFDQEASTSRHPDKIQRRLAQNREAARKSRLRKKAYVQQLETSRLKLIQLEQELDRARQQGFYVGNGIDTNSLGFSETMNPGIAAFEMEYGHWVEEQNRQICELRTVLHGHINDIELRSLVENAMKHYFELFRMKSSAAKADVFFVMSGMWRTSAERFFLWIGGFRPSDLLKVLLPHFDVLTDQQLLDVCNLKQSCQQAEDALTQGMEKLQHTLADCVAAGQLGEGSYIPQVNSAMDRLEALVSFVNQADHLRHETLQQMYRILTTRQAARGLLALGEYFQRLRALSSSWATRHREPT
Nature of the experiment: split reporter.

Like-named read-outs stand apart in the source and are kept apart here. These are yes or no findings as the source states them, for the method shown. For part of these data: Binding seen in cells or lysates may run through a third protein. Some results given as binding are weak or reduced against the parent protein; the word gives no strength. Sequences can lack the tags named with a protein.

Turning to “HA-NPR1 (35S:HA-NPR1 stable transgenic Arabidopsis) (from UniProt P93002 1-593)”, the binding entry in [1] is “binds”.

B1: AD-ICE1^261-494 (domain or fragment, UniProt Q9LSE2 261-494)
chain: DGDMDETGIEVSGLNYESDEINESGKAAESVQIGGGGKGKKKGMPAKNLMAERRRRKKLNDRLYMLRSVVPKISKMDRASILGDAIDYLKELLQRINDLHNELESTPPGSLPPTSSSFHPLTPTPQTLSCRVKEELCPSSLPSPKGQQARVEVRLREGRAVNIHMFCGRRPGLLLATMKALDNLGLDVQQAVISCFNGFALDVFRAEQCQEGQEILPDQIKAVLFDTAGYAGMI
Regarding B1, the binding result in [2] and in [3] was “binds” in each case.

B2: ICE1^261-494-nYFP (domain or fragment, UniProt Q9LSE2 261-494)
chain: DGDMDETGIEVSGLNYESDEINESGKAAESVQIGGGGKGKKKGMPAKNLMAERRRRKKLNDRLYMLRSVVPKISKMDRASILGDAIDYLKELLQRINDLHNELESTPPGSLPPTSSSFHPLTPTPQTLSCRVKEELCPSSLPSPKGQQARVEVRLREGRAVNIHMFCGRRPGLLLATMKALDNLGLDVQQAVISCFNGFALDVFRAEQCQEGQEILPDQIKAVLFDTAGYAGMI
With B2, the binding entry in [4] is recorded as “binds”.

B3: ICE1-Myc (35S::ICE1-Myc, pGWB517, in protoplasts) (protein, UniProt Q9LSE2 1-494)
chain: MGLDGNNGGGVWLNGGGGEREENEEGSWGRNQEDGSSQFKPMLEGDWFSSNQPHPQDLQMLQNQPDFRYFGGFPFNPNDNLLLQHSIDSSSSCSPSQAFSLDPSQQNQFLSTNNNKGCLLNVPSSANPFDNAFEFGSESGFLNQIHAPISMGFGSLTQLGNRDLSSVPDFLSARSLLAPESNNNNTMLCGGFTAPLELEGFGSPANGGFVGNRAKVLKPLEVLASSGAQPTLFQKRAAMRQSSGSKMGNSESSGMRRFSDDGDMDETGIEVSGLNYESDEINESGKAAESVQIGGGGKGKKKGMPAKNLMAERRRRKKLNDRLYMLRSVVPKISKMDRASILGDAIDYLKELLQRINDLHNELESTPPGSLPPTSSSFHPLTPTPQTLSCRVKEELCPSSLPSPKGQQARVEVRLREGRAVNIHMFCGRRPGLLLATMKALDNLGLDVQQAVISCFNGFALDVFRAEQCQEGQEILPDQIKAVLFDTAGYAGMI
In the case of B3, the binding entry in experiment [5] and in experiment [6] was “binds” throughout.

B4: ICE1-nLUC (protein, UniProt Q9LSE2 1-494)
chain: MGLDGNNGGGVWLNGGGGEREENEEGSWGRNQEDGSSQFKPMLEGDWFSSNQPHPQDLQMLQNQPDFRYFGGFPFNPNDNLLLQHSIDSSSSCSPSQAFSLDPSQQNQFLSTNNNKGCLLNVPSSANPFDNAFEFGSESGFLNQIHAPISMGFGSLTQLGNRDLSSVPDFLSARSLLAPESNNNNTMLCGGFTAPLELEGFGSPANGGFVGNRAKVLKPLEVLASSGAQPTLFQKRAAMRQSSGSKMGNSESSGMRRFSDDGDMDETGIEVSGLNYESDEINESGKAAESVQIGGGGKGKKKGMPAKNLMAERRRRKKLNDRLYMLRSVVPKISKMDRASILGDAIDYLKELLQRINDLHNELESTPPGSLPPTSSSFHPLTPTPQTLSCRVKEELCPSSLPSPKGQQARVEVRLREGRAVNIHMFCGRRPGLLLATMKALDNLGLDVQQAVISCFNGFALDVFRAEQCQEGQEILPDQIKAVLFDTAGYAGMI
As to B4, the values for the binding result in experiment [7], in [8] and in experiment [9] were “binds weakly”, “binds” and “binds”, respectively.

B5: ICE1-nYFP (protein, UniProt Q9LSE2 1-494)
chain: MGLDGNNGGGVWLNGGGGEREENEEGSWGRNQEDGSSQFKPMLEGDWFSSNQPHPQDLQMLQNQPDFRYFGGFPFNPNDNLLLQHSIDSSSSCSPSQAFSLDPSQQNQFLSTNNNKGCLLNVPSSANPFDNAFEFGSESGFLNQIHAPISMGFGSLTQLGNRDLSSVPDFLSARSLLAPESNNNNTMLCGGFTAPLELEGFGSPANGGFVGNRAKVLKPLEVLASSGAQPTLFQKRAAMRQSSGSKMGNSESSGMRRFSDDGDMDETGIEVSGLNYESDEINESGKAAESVQIGGGGKGKKKGMPAKNLMAERRRRKKLNDRLYMLRSVVPKISKMDRASILGDAIDYLKELLQRINDLHNELESTPPGSLPPTSSSFHPLTPTPQTLSCRVKEELCPSSLPSPKGQQARVEVRLREGRAVNIHMFCGRRPGLLLATMKALDNLGLDVQQAVISCFNGFALDVFRAEQCQEGQEILPDQIKAVLFDTAGYAGMI
Take B5: the binding entry in [10] was “binds weakly”; in [11], “binds”; in experiment [12], “binds”; in experiment [13] it was “binds”; in experiment [4], “binds”; in [14] it was “binds”. Besides, in experiment [15], the binding result is “binds”.

B6: AD-ICE1^1-260 (domain or fragment, UniProt Q9LSE2 1-260)
chain: MGLDGNNGGGVWLNGGGGEREENEEGSWGRNQEDGSSQFKPMLEGDWFSSNQPHPQDLQMLQNQPDFRYFGGFPFNPNDNLLLQHSIDSSSSCSPSQAFSLDPSQQNQFLSTNNNKGCLLNVPSSANPFDNAFEFGSESGFLNQIHAPISMGFGSLTQLGNRDLSSVPDFLSARSLLAPESNNNNTMLCGGFTAPLELEGFGSPANGGFVGNRAKVLKPLEVLASSGAQPTLFQKRAAMRQSSGSKMGNSESSGMRRFSD
As to B6, the binding result in experiment [2] and in [3] was “no binding” throughout.

The values are drawn from doi:10.1101/2023.09.12.557434.
